Measured values from patent US7863264B2, “Stabilised compositions having antibacterial activity” (Coloplast A/S, priority 2000, dated 2011).
Some results were stated once for a whole list of compounds, not compound by compound. For at least one compound, name, drawing or mass did not settle the structure.

Assay: Solubility for 1:1 complexes (silver by atomic absorption spectroscopy)
Conditions: silver complexes of the named preferred ligands; ratio not stated

In the case of `CC(=O)N1C(=O)[N-]C(=O)C1(C)C.[Ag+]` [Ag/1-acetyl-5,5-dimethyl-hydantoin, Silver 1-acetyl-5,5-dimethyl-hydantoinate], the solubility in water is reported as “above 20 mg Ag/l”.
